Measurements: paper PMC8003079, “Virus-Like Particles Produced Using the Brome Mosaic Virus Recombinant Capsid Protein Expressed in a Bacterial System” (International Journal of Molecular Sciences, 2021)
These are yes or no findings as the source states them, for the method shown. Some results given as binding are weak or reduced against the parent protein; the word gives no strength.

Legend:
[1] = molecular target: recombinant brome mosaic virus (BMV) capsid protein (brome mosaic virus) (UniProt P03602); test: AFM; empty VLPs, 5 ug/mL, dried on mica, tapping mode in air; both purified
[2] = molecular target: recombinant brome mosaic virus (BMV) capsid protein (brome mosaic virus) (UniProt P03602); test: cross-linking; 5 mM DSS, rCP in MST buffer pH 6.8; 5, 10, 15 and 30 min; SDS-PAGE; both purified
[3] = molecular target: recombinant brome mosaic virus (BMV) capsid protein (brome mosaic virus) (UniProt P03602); test: DLS; rCP 0.1 mg/mL, pH 6.8; hydrodynamic diameter, volume distribution; also after 24 h at 4 °C; both purified
[4] = molecular target: recombinant brome mosaic virus (BMV) capsid protein (brome mosaic virus) (UniProt P03602); test: DLS; empty VLPs assembled without cargo by two-step dialysis; sodium acetate buffer pH 4.8, 25 °C; both purified
[5] = molecular target: recombinant brome mosaic virus (BMV) capsid protein (brome mosaic virus) (UniProt P03602); test: cryo-TEM imaging; empty VLPs assembled without cargo by two-step dialysis; vitrified samples, 120 kV; both purified

Measured: binding

B1: recombinant brome mosaic virus (BMV) capsid protein (natural protein)
chain: MSTSGTGKMTRAQRRAAARRNRWTARVQPVIVEPLAAGQGKAIKAIAGYSISKWEASSDAITAKATNAMSITLPHELSSEKNKELKVGRVLLWLGLLPSVAGRIKACVAEKQAQAEAAFQVALAVADSSKEVVAAMYTDAFRGATLGDLLNLQIYLYASEAVPAKAVVVHLEVEHVRPTFDDFFTPVYR
notes: brome mosaic virus capsid (coat) protein; In the MST assay one copy was labelled with Monolith NT Protein Labeling Kit RED-NHS 647 and titrated with unlabelled rCP; also called rCP; CP; source: E. coli Rosetta 2(DE3)pLysS, purified (Ni-NTA, TEV digestion, second Ni-NTA); not shown: His tag (inferred from Ni-NTA purification; vector pMCSG48), N-terminal, cleaved
binds: all assays above
